Article PMC13159128
Results are given in words; binding and its absence hold for the method and conditions named. In cells and extracts the contact can be indirect. Here binding means that the protein was enriched with, or labelled near, the bait; the list need not be complete.

The chains behind the UniProt entries cited, without tags or fusion partners. Residues count along the entry.
UniProt P0C0I3, residues 34-571: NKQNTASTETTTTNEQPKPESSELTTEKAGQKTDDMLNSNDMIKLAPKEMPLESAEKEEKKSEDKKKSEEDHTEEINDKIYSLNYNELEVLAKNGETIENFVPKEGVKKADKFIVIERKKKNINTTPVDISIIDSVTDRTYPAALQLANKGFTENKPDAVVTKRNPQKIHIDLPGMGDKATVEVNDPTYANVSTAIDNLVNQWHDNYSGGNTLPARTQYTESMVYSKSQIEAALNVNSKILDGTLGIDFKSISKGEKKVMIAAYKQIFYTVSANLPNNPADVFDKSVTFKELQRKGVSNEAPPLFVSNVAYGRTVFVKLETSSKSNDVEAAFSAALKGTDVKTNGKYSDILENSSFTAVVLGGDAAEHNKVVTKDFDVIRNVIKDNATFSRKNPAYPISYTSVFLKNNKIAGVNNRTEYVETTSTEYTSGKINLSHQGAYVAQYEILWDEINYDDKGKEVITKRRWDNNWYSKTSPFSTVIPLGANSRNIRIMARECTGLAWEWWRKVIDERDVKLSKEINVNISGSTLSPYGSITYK
UniProt P13671, residues 22-934: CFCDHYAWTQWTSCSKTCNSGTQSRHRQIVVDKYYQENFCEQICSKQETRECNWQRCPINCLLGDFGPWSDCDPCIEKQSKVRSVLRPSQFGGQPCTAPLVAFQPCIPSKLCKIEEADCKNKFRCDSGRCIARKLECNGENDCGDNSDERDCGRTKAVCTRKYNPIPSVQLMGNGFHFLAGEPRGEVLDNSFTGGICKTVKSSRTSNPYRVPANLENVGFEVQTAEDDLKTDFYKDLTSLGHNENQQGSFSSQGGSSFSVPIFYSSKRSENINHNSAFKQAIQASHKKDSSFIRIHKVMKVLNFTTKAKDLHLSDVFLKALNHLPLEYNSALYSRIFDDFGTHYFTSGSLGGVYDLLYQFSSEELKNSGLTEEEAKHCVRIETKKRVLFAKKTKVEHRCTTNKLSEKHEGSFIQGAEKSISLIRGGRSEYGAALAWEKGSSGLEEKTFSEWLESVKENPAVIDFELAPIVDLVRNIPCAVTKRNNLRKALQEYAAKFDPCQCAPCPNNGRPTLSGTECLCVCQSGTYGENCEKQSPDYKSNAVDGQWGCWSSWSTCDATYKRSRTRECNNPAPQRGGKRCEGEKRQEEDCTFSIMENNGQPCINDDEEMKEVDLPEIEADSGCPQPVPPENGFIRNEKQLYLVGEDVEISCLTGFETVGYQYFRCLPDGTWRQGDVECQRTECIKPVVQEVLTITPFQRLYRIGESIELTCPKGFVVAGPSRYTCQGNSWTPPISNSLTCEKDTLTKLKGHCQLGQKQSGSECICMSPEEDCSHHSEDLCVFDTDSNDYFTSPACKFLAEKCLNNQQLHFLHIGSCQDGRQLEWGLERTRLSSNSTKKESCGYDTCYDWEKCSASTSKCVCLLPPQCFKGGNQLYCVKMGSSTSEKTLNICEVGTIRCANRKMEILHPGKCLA
UniProt P01591, residues 23-159: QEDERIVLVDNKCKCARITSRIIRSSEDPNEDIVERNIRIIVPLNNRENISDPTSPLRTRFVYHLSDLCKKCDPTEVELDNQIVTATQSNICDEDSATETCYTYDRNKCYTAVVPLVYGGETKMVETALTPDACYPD
UniProt P02748, residues 22-559: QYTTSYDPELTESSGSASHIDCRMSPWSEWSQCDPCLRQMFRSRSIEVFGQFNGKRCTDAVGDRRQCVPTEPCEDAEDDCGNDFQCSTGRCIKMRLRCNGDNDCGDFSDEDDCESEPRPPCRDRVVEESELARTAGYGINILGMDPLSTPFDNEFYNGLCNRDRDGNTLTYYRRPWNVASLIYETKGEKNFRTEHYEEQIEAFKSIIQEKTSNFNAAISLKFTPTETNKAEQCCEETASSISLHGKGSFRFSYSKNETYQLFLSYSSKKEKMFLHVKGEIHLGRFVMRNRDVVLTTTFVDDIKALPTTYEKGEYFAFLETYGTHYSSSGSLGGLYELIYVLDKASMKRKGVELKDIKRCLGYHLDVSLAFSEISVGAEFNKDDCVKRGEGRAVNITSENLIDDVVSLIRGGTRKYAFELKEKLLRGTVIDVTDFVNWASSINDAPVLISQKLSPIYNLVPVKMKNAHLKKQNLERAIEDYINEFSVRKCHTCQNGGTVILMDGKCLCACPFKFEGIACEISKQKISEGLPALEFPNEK
UniProt P10643, residues 23-843: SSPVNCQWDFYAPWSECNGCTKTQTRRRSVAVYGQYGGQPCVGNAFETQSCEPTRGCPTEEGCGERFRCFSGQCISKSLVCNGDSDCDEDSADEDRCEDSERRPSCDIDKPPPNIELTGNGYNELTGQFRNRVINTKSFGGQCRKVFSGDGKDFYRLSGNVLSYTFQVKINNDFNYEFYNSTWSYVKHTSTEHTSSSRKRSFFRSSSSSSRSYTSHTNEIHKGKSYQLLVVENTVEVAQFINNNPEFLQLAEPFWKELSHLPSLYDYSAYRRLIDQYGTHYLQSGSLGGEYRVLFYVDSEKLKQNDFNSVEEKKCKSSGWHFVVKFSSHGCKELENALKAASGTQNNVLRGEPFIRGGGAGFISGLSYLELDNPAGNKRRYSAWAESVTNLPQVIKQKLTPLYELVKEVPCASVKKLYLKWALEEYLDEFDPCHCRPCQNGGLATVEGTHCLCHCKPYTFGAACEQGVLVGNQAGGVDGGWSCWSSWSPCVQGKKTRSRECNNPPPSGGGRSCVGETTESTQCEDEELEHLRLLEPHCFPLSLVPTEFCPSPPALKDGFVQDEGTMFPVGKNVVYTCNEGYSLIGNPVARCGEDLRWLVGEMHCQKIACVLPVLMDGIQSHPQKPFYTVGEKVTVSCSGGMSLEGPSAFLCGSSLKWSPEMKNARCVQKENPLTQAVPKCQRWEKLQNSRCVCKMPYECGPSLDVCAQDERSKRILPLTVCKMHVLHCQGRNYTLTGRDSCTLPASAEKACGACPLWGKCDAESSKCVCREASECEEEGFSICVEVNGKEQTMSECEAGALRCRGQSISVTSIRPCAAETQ

Molecular target: streptolysin O (SLO), recombinant GAS M1 virulence factor (Streptococcus pyogenes (GAS) serotype M1) (UniProt P0C0I3)
Test: affinity purification with mass spectrometry; interactome A: tagged bait immobilised on Strep-Tactin Sepharose, prey pooled human plasma (50 % v/v in PBS) or pooled, centrifuged and filtered saliva, PBS washes, elution with biotin; DIA MS, MiST score >= 0.75; GFP control bait; n = 3; only the target purified

Row | Substance | binding
1 | complement component C6 (from UniProt P13671 22-934) | binds
2 | JCHAIN (from UniProt P01591 23-159) | binds
3 | complement component C9 (from UniProt P02748 22-559) | binds
4 | complement component C7 (from UniProt P10643 23-843) | binds
